Results are given in words; binding and its absence hold for the method and conditions named. Binding seen in cells or lysates may run through a third protein. Some entries that bind do so weakly or less than the wild type.
Target: embryonic ectoderm development (EED) (human (endogenous in K562)) (UniProt O75530)
Assay: co-IP; immunoprecipitation (Figure S1); cells, bait and antibody not told in the text shown

By UniProt entry, the sequences of proteins in these tests, tags left out.
UniProt O75530: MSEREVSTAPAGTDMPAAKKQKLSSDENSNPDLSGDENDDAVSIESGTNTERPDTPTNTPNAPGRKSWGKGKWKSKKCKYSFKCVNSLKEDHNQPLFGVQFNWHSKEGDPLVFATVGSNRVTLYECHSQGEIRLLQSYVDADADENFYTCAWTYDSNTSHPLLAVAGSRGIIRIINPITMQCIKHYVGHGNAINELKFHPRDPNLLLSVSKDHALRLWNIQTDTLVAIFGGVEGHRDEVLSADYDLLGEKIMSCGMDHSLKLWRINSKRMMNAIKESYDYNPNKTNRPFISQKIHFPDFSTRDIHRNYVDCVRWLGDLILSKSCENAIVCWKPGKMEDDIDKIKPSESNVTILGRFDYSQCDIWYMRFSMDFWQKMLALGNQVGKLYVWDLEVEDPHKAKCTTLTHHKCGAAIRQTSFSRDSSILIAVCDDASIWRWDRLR
UniProt P35226: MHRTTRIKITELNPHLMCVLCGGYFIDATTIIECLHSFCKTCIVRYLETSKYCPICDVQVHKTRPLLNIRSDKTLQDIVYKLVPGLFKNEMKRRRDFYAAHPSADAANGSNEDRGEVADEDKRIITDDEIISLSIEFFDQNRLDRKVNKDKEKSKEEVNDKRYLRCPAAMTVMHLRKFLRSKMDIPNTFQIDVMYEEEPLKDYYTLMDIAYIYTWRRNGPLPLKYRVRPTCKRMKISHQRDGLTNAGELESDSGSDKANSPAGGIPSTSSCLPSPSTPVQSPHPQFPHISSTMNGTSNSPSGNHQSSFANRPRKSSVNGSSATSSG
UniProt Q99496: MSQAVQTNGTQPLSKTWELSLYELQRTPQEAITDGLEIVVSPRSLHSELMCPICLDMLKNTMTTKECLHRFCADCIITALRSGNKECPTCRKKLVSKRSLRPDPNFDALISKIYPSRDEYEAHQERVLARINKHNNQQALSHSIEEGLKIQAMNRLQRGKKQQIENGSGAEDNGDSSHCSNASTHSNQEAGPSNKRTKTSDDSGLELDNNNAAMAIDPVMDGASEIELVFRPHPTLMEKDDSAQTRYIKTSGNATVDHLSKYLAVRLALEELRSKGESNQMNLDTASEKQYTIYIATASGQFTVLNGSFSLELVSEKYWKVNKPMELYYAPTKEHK

| Substance | binding |
| --- | --- |
| B cell-specific Moloney murine leukemia virus integration site 1 (BMI1) (from UniProt P35226 1-326) | binds |
| really interesting new gene 1B (RING1B) (from UniProt Q99496 1-336) | binds |

Source: article PMC10074066
